Results reported in paper PMC2477742.
The exact form of at least one protein or probe is not confirmed. Results from cells or extracts need not show a direct contact. At least one verdict was read from the data and is not stated in words by the source.

Tested on: STAT1 (cytokine-activated, in STAT1/3 heterodimer) + STAT3 (IL-6-activated, phosphorylated)
Experiment: EMSA supershift
Settings: NIH 3T3 nuclear extract, IL-6 30 min, complexes with STAT1, STAT3 or both supershifted or decreased; 13.3 mM Hepes pH 7.6, 0.7 mM EDTA, 3.3 mM MgCl2, 34 mM KCl, 1 mM DTT, 10% glycerol, 0.5 ug poly(dI-dC), on ice 15 min; 5% PAGE in 0.25x TBE; protein in an extract; label: 32P (alpha-32P dATP end-labelling)

“GATCTAGGGATTTCCGGGAAATGAAGCT (double strand) [M67 (c-sis-inducible element probe)]”: binds.
